Results are given in words; binding and its absence hold for the method and conditions named. In cells and extracts the contact can be indirect. Some results given as binding are weak or reduced against the parent protein; the word gives no strength.

Amino acid sequences for entries named in this document (tags omitted). Residues count along the entry.
UniProt P21803, residues 22-821: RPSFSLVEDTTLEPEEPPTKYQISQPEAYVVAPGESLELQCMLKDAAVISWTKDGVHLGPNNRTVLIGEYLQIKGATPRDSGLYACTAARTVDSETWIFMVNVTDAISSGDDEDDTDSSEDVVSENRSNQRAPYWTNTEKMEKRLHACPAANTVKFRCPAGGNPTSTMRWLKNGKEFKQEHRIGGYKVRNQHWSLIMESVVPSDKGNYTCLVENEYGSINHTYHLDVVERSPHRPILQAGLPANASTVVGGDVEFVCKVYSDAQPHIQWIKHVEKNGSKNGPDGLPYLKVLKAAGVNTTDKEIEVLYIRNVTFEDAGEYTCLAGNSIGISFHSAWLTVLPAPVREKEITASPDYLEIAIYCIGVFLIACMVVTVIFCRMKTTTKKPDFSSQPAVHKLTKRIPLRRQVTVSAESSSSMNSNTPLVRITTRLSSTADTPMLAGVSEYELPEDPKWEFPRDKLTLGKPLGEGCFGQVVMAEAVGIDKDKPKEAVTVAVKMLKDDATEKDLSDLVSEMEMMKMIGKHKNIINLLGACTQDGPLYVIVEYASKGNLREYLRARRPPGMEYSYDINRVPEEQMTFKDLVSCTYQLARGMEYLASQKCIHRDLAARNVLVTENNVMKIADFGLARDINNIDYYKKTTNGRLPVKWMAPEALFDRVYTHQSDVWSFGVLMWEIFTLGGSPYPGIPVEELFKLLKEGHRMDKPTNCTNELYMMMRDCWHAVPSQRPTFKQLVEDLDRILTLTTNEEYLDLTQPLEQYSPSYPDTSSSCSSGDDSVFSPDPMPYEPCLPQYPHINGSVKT
UniProt P47941: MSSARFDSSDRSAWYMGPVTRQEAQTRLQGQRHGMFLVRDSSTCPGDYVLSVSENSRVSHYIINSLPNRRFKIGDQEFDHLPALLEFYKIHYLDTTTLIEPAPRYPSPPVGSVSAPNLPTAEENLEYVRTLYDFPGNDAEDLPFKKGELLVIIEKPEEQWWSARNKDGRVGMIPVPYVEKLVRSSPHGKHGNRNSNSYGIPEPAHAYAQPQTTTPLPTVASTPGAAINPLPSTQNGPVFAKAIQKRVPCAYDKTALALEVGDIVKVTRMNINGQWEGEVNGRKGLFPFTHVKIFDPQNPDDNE

For the experiment, the target named is FGFR2^WT-Flag3x (mouse FGFR2 isoform c, wild type, triple Flag tag) (mouse) (UniProt P21803). Briefly: co-IP.

As for CRKL (from UniProt P47941 1-303), the binding entry was “binds”.

The values above are taken from paper doi:10.1101/2020.05.13.093252.
